Experimental data reported in patent US20260256723A1, “THIOL-BASED COMPOUNDS AND COMPOSITIONS AND USES THEREOF” (CASE WESTERN RESERVE UNIVERSITY, priority 2022, published 2026).

Tested on: unanesthetized rats receiving continuous intravenous infusion of fentanyl
Design: species or system Sprague Dawley rat
Details: rat, in vivo

CC(=O)N[C@@H](CS)C(=O)O [L-NAC, N-acetyl-L-cysteine]
Body temperature: 37.8 ± 0.1 °C and 37.7 ± 0.1 °C and 37.4 ± 0.1 °C | Body temperature, Delta changes from Pre: 0.23 ± 0.03 °C and 0.33 ± 0.04 °C and 0.34 ± 0.04 °C and 0.32 ± 0.06 °C and 0.28 ± 0.06 °C and 0.29 ± 0.05 °C | Body temperature (iv): 37.7 ± 0.1 °C and 37.6 ± 0.1 °C | Body temperature, Delta changes from Pre (iv): 0.14 ± 0.04 °C and 0.28 ± 0.07 °C

Where “and” joins values, the source holds several entries; their conditions need not be identical. Equal entries are not always repeated. Where two headings read alike, the source gives them in different places. The amount applied is not stated for every result.
